Laboratory results: patent US20180127681A1, “GLYCOSYLATED AROMA- AND FRAGRANCE PRECURSORS AND FRAGRANCE PRODUCTS THAT CAN BE ACTIVATED” (Technische University Muenchen, priority 2015, published 2018)
For at least one compound, name, drawing or mass did not settle the structure.

Experiment: Baking tests, dough of three kinds of bread with 100 ppm geranyl glucoside (summary)
Type: physicochemical
Details: during the preparation, yeast-ß-glucosidase
Protocol: The proof-of-principle was now shown successfully for the example bread. Dough from three different kinds of bread was treated with the aroma precursor geranyl glucoside. […] This conversion is ascribed to the biggest extent to pyrolytic processes (about 5%) during the ten-minute baking process at 230° C. and partly on the enzyme-catalyzed hydrolytic processes (about […]) during the preparation of yeast-ß-glucosidase.

**Q.** Which “conversion ascribed to enzyme-catalyzed hydrolytic processes” value does the source give for `CC(C)=CCC/C(C)=C/CO[C@@H]1O[C@H](CO)[C@@H](O)[C@H](O)[C@H]1O` [geranyl glucoside] here?
**A.** The value was “about i”.
